From publication PMC5148922
These are yes or no findings as the source states them, for the method shown. In cells and extracts the contact can be indirect. Some entries that bind do so weakly or less than the wild type. For some of these results: Sequences can lack the tags named with a protein.

Amino acid sequences for entries named in this document (tags omitted).
UniProt Q6PF93: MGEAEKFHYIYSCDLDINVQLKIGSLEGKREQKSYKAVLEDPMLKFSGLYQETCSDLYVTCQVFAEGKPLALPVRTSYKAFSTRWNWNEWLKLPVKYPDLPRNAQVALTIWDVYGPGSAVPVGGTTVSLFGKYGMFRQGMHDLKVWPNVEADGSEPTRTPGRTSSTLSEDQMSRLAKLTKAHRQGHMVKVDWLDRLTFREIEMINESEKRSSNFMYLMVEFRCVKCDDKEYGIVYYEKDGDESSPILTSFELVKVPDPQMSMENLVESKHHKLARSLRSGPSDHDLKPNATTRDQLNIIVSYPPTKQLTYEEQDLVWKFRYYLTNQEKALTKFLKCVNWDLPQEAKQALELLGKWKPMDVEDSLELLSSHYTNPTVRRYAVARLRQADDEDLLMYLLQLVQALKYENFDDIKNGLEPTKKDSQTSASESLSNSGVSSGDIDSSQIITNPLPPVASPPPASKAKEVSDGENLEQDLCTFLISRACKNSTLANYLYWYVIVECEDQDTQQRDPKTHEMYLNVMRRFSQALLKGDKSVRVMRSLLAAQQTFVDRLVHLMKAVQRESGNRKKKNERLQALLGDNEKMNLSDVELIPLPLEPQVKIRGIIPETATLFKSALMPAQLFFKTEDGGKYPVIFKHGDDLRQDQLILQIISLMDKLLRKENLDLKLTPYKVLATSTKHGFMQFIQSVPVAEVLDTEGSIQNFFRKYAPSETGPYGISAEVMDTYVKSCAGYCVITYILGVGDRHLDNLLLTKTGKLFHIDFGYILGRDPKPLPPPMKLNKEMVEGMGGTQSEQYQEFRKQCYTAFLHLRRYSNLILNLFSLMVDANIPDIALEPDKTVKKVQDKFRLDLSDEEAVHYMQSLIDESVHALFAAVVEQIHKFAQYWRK
UniProt Q9ESK9: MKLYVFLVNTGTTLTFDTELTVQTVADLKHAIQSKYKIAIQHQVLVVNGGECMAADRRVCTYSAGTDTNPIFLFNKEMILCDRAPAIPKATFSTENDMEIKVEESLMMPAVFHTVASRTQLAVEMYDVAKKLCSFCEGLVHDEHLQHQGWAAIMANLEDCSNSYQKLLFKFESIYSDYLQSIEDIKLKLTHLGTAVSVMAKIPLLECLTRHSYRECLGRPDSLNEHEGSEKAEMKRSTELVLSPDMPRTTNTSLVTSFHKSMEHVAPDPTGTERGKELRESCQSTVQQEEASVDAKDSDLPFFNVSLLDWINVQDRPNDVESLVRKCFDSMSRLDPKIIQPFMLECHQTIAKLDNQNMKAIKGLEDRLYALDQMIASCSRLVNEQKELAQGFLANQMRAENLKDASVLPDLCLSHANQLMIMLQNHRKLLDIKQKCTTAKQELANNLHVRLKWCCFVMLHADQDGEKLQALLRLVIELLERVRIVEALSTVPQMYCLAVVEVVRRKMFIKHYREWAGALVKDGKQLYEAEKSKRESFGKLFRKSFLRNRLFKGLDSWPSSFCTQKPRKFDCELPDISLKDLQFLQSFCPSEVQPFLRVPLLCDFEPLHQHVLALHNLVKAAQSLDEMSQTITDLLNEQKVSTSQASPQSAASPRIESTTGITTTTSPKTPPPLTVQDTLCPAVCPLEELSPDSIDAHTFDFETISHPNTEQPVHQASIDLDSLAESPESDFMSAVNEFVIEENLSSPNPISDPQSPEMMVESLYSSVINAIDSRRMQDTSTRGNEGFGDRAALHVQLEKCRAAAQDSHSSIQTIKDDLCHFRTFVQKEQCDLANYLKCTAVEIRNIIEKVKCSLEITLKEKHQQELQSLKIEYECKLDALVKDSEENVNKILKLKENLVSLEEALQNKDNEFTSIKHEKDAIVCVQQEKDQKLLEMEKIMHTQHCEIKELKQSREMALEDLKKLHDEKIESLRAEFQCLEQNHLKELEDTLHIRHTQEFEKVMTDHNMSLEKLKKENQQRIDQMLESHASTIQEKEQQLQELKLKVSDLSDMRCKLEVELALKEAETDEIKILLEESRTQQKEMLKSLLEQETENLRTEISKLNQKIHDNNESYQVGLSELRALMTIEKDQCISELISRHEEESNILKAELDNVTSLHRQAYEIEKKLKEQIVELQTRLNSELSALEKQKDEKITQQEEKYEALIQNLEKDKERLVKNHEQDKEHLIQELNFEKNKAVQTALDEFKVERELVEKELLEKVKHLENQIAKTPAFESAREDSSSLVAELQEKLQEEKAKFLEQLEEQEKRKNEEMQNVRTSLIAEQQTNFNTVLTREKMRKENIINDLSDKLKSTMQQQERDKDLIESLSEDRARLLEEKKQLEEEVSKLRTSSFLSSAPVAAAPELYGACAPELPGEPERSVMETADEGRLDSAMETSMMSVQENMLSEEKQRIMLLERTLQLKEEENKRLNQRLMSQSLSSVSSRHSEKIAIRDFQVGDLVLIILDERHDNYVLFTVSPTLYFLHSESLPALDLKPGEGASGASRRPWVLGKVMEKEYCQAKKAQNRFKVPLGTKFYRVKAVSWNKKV

T1: ULK1 (endogenous, MEF cells) (mouse (endogenous in MEF)) (UniProt O70405)
T1 sequence: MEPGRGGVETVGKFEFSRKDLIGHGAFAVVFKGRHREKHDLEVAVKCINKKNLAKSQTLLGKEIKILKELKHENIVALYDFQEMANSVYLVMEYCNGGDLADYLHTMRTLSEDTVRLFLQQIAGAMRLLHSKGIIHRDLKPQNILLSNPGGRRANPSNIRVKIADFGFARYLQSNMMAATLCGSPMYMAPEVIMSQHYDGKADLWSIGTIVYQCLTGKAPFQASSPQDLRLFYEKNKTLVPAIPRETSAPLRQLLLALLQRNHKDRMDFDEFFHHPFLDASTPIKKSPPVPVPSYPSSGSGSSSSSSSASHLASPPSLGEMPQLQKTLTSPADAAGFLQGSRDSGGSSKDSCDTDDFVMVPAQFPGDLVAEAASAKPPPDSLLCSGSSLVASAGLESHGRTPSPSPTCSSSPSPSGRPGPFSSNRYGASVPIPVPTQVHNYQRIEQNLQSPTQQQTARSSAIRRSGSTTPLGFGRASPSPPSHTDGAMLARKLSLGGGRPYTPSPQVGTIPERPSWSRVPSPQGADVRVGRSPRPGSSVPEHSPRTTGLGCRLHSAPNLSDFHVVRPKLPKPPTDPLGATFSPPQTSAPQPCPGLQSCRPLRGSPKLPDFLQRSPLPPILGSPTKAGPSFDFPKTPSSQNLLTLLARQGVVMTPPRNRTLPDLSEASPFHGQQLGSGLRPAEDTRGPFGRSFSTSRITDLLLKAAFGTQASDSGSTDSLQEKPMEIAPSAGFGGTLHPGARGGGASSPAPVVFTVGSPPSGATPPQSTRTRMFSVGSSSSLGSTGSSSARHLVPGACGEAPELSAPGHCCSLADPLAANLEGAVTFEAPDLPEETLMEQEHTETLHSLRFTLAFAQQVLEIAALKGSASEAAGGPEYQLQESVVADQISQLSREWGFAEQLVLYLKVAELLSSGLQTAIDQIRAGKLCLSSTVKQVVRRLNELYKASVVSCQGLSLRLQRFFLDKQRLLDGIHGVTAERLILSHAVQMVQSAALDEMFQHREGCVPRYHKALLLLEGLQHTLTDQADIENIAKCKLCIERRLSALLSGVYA

B1: Myc-ULK1 wildtype (enzyme, UniProt O70405 1-1051)
chain: MEPGRGGVETVGKFEFSRKDLIGHGAFAVVFKGRHREKHDLEVAVKCINKKNLAKSQTLLGKEIKILKELKHENIVALYDFQEMANSVYLVMEYCNGGDLADYLHTMRTLSEDTVRLFLQQIAGAMRLLHSKGIIHRDLKPQNILLSNPGGRRANPSNIRVKIADFGFARYLQSNMMAATLCGSPMYMAPEVIMSQHYDGKADLWSIGTIVYQCLTGKAPFQASSPQDLRLFYEKNKTLVPAIPRETSAPLRQLLLALLQRNHKDRMDFDEFFHHPFLDASTPIKKSPPVPVPSYPSSGSGSSSSSSSASHLASPPSLGEMPQLQKTLTSPADAAGFLQGSRDSGGSSKDSCDTDDFVMVPAQFPGDLVAEAASAKPPPDSLLCSGSSLVASAGLESHGRTPSPSPTCSSSPSPSGRPGPFSSNRYGASVPIPVPTQVHNYQRIEQNLQSPTQQQTARSSAIRRSGSTTPLGFGRASPSPPSHTDGAMLARKLSLGGGRPYTPSPQVGTIPERPSWSRVPSPQGADVRVGRSPRPGSSVPEHSPRTTGLGCRLHSAPNLSDFHVVRPKLPKPPTDPLGATFSPPQTSAPQPCPGLQSCRPLRGSPKLPDFLQRSPLPPILGSPTKAGPSFDFPKTPSSQNLLTLLARQGVVMTPPRNRTLPDLSEASPFHGQQLGSGLRPAEDTRGPFGRSFSTSRITDLLLKAAFGTQASDSGSTDSLQEKPMEIAPSAGFGGTLHPGARGGGASSPAPVVFTVGSPPSGATPPQSTRTRMFSVGSSSSLGSTGSSSARHLVPGACGEAPELSAPGHCCSLADPLAANLEGAVTFEAPDLPEETLMEQEHTETLHSLRFTLAFAQQVLEIAALKGSASEAAGGPEYQLQESVVADQISQLSREWGFAEQLVLYLKVAELLSSGLQTAIDQIRAGKLCLSSTVKQVVRRLNELYKASVVSCQGLSLRLQRFFLDKQRLLDGIHGVTAERLILSHAVQMVQSAALDEMFQHREGCVPRYHKALLLLEGLQHTLTDQADIENIAKCKLCIERRLSALLSGVYA
B2: Myc-ULK1 kinase inhibited (K46I) mutant (enzyme, UniProt O70405 1-1051)
chain: MEPGRGGVETVGKFEFSRKDLIGHGAFAVVFKGRHREKHDLEVAVICINKKNLAKSQTLLGKEIKILKELKHENIVALYDFQEMANSVYLVMEYCNGGDLADYLHTMRTLSEDTVRLFLQQIAGAMRLLHSKGIIHRDLKPQNILLSNPGGRRANPSNIRVKIADFGFARYLQSNMMAATLCGSPMYMAPEVIMSQHYDGKADLWSIGTIVYQCLTGKAPFQASSPQDLRLFYEKNKTLVPAIPRETSAPLRQLLLALLQRNHKDRMDFDEFFHHPFLDASTPIKKSPPVPVPSYPSSGSGSSSSSSSASHLASPPSLGEMPQLQKTLTSPADAAGFLQGSRDSGGSSKDSCDTDDFVMVPAQFPGDLVAEAASAKPPPDSLLCSGSSLVASAGLESHGRTPSPSPTCSSSPSPSGRPGPFSSNRYGASVPIPVPTQVHNYQRIEQNLQSPTQQQTARSSAIRRSGSTTPLGFGRASPSPPSHTDGAMLARKLSLGGGRPYTPSPQVGTIPERPSWSRVPSPQGADVRVGRSPRPGSSVPEHSPRTTGLGCRLHSAPNLSDFHVVRPKLPKPPTDPLGATFSPPQTSAPQPCPGLQSCRPLRGSPKLPDFLQRSPLPPILGSPTKAGPSFDFPKTPSSQNLLTLLARQGVVMTPPRNRTLPDLSEASPFHGQQLGSGLRPAEDTRGPFGRSFSTSRITDLLLKAAFGTQASDSGSTDSLQEKPMEIAPSAGFGGTLHPGARGGGASSPAPVVFTVGSPPSGATPPQSTRTRMFSVGSSSSLGSTGSSSARHLVPGACGEAPELSAPGHCCSLADPLAANLEGAVTFEAPDLPEETLMEQEHTETLHSLRFTLAFAQQVLEIAALKGSASEAAGGPEYQLQESVVADQISQLSREWGFAEQLVLYLKVAELLSSGLQTAIDQIRAGKLCLSSTVKQVVRRLNELYKASVVSCQGLSLRLQRFFLDKQRLLDGIHGVTAERLILSHAVQMVQSAALDEMFQHREGCVPRYHKALLLLEGLQHTLTDQADIENIAKCKLCIERRLSALLSGVYA
B3: ATG13 (endogenous, MEF cells) (protein, UniProt Q91YI1 1-516)
chain: METELSSQDRKDLDKFIKFFALKTVQVIVQARLGEKICTRSSSSPTGSDWFNLAIKDIPEVTHEAKKALSGQLPAVGRSMCVEISLKTSEGDSMELEIWCLEMNEKCDKEIKVSYTVYNRLSLLLKSLLAITRVTPAYRLSRKQGHEYVILYRIYFGEVQLNGLGEGFQTVRVGTVGTPVGTLTLSCAYRINLAFMSTRQFERTPPIMGIIIDHFVDRPYPSSSPMHPCNYRTAEDAGVAYPSVEDSQEVCTTSFSTSPPSQLSSSRLSYQPAVLGLGSADLAYPVVFTAGLNTTHAHQLMVPGKEGGVTLAPSHPTHGAQADPERLVMHMPSDGTHCAATPSSSEDTETVSNSSEGRASPHDILETIFVRKVGAFVNKPINQVTVTSLDIPFAMFAPKNLELEDADPMVNPPESPETTSPLHGSLHSDGSSGGSGGSTHDDFVMIDFKPAFSKDDILPMDLGTFYREFQNPPQLSSLSIDFGAQSMAEDLDSLPEKLAVHEKNVREFDAFVETLQ

Columns and labels:
[1] = biological target: ATG14 (endogenous, mouse) (mouse (endogenous in MEF and mouse cortex)) (UniProt Q8CDJ3); test: co-IP; endogenous proteins; MEF cells treated or not with Torin 1 for 60 min; lysates subject to IP using antibody against ATG14
[2] = biological target: ATG14 (endogenous, mouse) (mouse (endogenous in MEF and mouse cortex)) (UniProt Q8CDJ3); test: co-IP; endogenous proteins; 500 ug protein of post-nuclear supernatant from the cortex of Q175 mice, antibodies against ATG14 (MBL) overnight at 4 C, Dynabeads; part of the beads for western blotting
[3] = biological target: T1, ULK1 (endogenous, MEF cells) (mouse (endogenous in MEF)); test: co-IP; endogenous proteins; ULK1/2 WT and DKO MEFs treated with MG132, IP with ULK1 antibody
ATG14-GFP = ATG14-GFP (UniProt Q6ZNE5); test: co-IP; Myc-ULK1 and ATG14-GFP overexpressed in HEK cells, pulled down using antibodies against GFP; IP buffer 10 mM Tris-HCl pH 7.5, 2 mM EDTA, 100 mM NaCl, 1% NP-40

Row | Molecule | binding [1] | binding [3] | binding (ATG14-GFP) | also measured
1 | Vps34 (endogenous, mouse) (from UniProt Q6PF93 1-887) (enzyme) | binds | – | – | binding [2]: binds
2 | NRBF2 (endogenous, MEF cells) (from UniProt Q8VCQ3 1-287) | binds | – | – | –
3 | FIP200 (endogenous, MEF cells) (from UniProt Q9ESK9 1-1588) | – | binds | – | –
4 | B1 | – | – | binds | –
5 | B2 | – | – | binds | –
6 | B3 | – | binds | – | –
